In the assay the target is T1, Sept7 C-terminal tail peptide, residues 416-438, phosphorylated at T426 (UniProt Q16181).
T1 sequence (peptide, phosphothreonine at T426): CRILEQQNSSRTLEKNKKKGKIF
Description: affinity purification with mass spectrometry; Sept7 416-438 peptides (pT426 or unphosphorylated) coupled by an N-terminal cysteine to SulfoLink beads, incubated with 100 ul of 0.5 mg/ml P15 mouse brain lysate; washes in 20 mM Tris pH 7.5, 100 mM NaCl, 10 mM MgCl2, 1% Triton X-100, 0.1% deoxycholic acid; label-free quantification, five replicates, phosphorylated against unphosphorylated peptide; only the target purified.

Chains of the proteins cited; added tags and fusions are not shown.
UniProt Q04447: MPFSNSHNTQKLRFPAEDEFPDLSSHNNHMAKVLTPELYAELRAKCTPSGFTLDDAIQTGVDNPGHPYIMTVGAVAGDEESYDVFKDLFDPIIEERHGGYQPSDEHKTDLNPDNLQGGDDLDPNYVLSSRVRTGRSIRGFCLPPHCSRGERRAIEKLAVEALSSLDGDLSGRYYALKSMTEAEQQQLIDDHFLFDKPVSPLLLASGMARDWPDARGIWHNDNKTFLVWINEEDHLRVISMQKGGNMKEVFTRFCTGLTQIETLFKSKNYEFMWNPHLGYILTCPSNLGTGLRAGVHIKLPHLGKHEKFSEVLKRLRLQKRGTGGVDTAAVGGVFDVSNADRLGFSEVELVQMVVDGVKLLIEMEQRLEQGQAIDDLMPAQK
UniProt P62320: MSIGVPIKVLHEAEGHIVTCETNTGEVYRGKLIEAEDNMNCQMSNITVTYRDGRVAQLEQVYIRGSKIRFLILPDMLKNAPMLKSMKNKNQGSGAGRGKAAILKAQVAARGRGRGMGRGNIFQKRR
UniProt P18760: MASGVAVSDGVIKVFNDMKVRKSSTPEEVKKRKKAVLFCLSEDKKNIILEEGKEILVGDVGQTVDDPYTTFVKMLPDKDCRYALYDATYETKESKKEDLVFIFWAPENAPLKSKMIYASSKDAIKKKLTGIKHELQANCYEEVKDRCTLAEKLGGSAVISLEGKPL
UniProt P15105: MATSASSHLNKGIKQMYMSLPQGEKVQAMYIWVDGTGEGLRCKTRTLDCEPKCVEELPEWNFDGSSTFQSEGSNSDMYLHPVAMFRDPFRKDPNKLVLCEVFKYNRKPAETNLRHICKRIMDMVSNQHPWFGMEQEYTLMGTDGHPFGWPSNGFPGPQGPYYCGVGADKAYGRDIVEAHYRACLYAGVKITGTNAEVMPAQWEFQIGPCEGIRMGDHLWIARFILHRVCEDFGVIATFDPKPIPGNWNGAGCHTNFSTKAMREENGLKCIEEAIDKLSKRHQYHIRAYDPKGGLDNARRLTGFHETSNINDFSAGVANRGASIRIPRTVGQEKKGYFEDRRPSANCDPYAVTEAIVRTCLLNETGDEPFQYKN
UniProt P63101: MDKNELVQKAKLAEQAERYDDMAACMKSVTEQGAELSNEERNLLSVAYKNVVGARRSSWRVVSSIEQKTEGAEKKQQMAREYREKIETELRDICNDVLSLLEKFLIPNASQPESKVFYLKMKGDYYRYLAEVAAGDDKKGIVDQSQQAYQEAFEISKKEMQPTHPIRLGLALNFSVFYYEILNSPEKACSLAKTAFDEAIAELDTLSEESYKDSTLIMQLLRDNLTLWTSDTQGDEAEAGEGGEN
UniProt P62774: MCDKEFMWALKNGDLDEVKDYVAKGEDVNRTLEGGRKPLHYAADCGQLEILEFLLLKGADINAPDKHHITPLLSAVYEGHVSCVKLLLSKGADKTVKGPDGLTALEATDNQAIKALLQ
UniProt Q9EQU5: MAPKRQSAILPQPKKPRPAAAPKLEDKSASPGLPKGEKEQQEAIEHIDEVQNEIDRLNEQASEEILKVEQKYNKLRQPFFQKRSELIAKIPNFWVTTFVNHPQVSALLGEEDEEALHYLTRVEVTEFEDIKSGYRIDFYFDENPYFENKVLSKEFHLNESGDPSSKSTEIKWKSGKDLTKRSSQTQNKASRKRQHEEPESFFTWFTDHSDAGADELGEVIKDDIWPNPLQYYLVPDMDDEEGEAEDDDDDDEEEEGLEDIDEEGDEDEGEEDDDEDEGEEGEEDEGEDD
UniProt Q9JJV2: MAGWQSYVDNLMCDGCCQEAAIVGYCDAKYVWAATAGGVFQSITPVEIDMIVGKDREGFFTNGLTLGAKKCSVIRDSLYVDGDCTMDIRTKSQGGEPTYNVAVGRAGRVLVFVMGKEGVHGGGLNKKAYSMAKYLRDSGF
UniProt Q62093: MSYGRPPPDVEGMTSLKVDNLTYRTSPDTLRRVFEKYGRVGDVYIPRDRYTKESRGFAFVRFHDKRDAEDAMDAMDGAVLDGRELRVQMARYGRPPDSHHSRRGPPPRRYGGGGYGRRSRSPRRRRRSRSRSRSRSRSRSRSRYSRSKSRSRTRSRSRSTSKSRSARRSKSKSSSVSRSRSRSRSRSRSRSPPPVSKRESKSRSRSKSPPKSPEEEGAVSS
UniProt P17742: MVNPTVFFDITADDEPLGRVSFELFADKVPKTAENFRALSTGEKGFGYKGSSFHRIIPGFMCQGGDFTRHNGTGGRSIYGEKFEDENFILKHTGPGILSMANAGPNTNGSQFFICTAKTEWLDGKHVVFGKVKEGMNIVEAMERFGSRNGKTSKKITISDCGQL
UniProt P63280: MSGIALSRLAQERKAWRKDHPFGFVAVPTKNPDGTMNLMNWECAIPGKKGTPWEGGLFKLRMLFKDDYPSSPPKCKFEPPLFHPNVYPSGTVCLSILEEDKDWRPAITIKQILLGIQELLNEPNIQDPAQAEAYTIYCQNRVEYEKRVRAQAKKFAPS
UniProt Q9CZ30: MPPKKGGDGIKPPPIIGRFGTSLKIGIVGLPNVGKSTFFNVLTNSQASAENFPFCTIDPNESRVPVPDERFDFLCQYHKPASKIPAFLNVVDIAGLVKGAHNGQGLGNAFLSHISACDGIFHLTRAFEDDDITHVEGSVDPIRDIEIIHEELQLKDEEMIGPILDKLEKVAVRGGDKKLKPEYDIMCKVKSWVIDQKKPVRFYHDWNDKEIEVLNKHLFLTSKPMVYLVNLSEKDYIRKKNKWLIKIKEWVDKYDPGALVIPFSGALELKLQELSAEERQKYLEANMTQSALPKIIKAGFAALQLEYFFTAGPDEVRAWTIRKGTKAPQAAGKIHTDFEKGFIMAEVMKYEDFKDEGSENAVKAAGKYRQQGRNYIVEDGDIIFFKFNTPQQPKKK
UniProt P09405: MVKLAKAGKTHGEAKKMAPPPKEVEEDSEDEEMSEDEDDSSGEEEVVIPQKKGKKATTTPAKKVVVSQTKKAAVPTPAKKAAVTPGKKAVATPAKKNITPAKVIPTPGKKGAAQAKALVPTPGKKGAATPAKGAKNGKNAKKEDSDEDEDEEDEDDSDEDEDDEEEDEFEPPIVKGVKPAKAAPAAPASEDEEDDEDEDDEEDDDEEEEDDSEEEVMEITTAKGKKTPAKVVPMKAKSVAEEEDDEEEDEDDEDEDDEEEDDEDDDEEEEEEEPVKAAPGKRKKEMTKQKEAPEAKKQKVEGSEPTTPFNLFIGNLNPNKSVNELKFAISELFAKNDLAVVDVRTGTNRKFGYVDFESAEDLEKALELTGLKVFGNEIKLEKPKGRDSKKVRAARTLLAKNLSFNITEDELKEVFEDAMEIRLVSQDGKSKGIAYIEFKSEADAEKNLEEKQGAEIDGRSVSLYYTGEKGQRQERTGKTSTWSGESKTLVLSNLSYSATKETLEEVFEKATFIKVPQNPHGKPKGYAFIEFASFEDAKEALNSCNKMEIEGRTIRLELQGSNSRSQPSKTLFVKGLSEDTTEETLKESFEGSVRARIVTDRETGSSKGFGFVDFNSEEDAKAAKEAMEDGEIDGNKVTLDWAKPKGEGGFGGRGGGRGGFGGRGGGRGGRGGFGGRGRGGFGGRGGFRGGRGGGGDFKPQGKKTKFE
UniProt P51880: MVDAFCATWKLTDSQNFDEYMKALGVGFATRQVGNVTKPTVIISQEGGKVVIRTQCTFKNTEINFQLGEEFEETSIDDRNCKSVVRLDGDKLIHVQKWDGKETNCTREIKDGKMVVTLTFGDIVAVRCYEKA

No constants are given. Whether binding was seen depends on the method and setting. Binding seen in cells or lysates may run through a third protein. Here binding means that the protein was enriched with, or labelled near, the bait; the list need not be complete. Where a sequence is shown, tags or fusion partners need not be part of it.

Take “Creatine kinase B-type (from UniProt Q04447 1-381) (enzyme)”: the binding result is listed as “binds”.
In the case of “Small nuclear ribonucleoprotein Sm D3 (from UniProt P62320 1-126)” it was “binds”; in that of Cofilin-1 (from UniProt P18760 1-166), “binds”; in that of “Glutamine synthetase (from UniProt P15105 1-373) (enzyme)”, “binds”.
On to “14-3-3 protein zeta/delta (from UniProt P63101 1-245)”, for which the binding entry is on record as “binds”.
With Myotrophin (from UniProt P62774 1-118) the entry was “binds”; with “Heterogeneous nuclear ribonucleoprotein A3 (mouse (endogenous in P15 mouse brain))”, “binds”; with Protein SET (from UniProt Q9EQU5 1-289), “binds”.
With Profilin-2 (from UniProt Q9JJV2 1-140) the entry was “binds”; with “Serine/arginine-rich splicing factor 2 (from UniProt Q62093 1-221)”, “binds”; with “Peptidyl-prolyl cis-trans isomerase A (from UniProt P17742 1-164) (enzyme)”, “binds”.
With “SUMO-conjugating enzyme UBC9 (from UniProt P63280 1-158)” the entry was “binds”; with “Obg-like ATPase 1 (from UniProt Q9CZ30 1-396) (enzyme)”, “binds”.
With Nucleolin (from UniProt P09405 1-707), the binding result was “binds”.
As to “Fatty acid-binding protein, brain (from UniProt P51880 1-132)”, the binding entry is recorded as “binds”.
In the case of “Eukaryotic translation initiation factor 5A-1; 5A-2 (mouse (endogenous in P15 mouse brain))” it was “binds”.

B1: Translationally-controlled tumor protein (protein, UniProt P63028 1-172)
chain: MIIYRDLISHDELFSDIYKIREIADGLCLEVEGKMVSRTEGAIDDSLIGGNASAEGPEGEGTESTVVTGVDIVMNHHLQETSFTKEAYKKYIKDYMKSLKGKLEEQKPERVKPFMTGAAEQIKHILANFNNYQFFIGENMNPDGMVALLDYREDGVTPFMIFFKDGLEMEKC
As for B1, the binding entry is reported as “binds”.

B2: ADP/ATP translocase 1 (protein, UniProt P48962 1-298)
chain: MGDQALSFLKDFLAGGIAAAVSKTAVAPIERVKLLLQVQHASKQISAEKQYKGIIDCVVRIPKEQGFLSFWRGNLANVIRYFPTQALNFAFKDKYKQIFLGGVDRHKQFWRYFAGNLASGGAAGATSLCFVYPLDFARTRLAADVGKGSSQREFNGLGDCLTKIFKSDGLKGLYQGFSVSVQGIIIYRAAYFGVYDTAKGMLPDPKNVHIIVSWMIAQSVTAVAGLVSYPFDTVRRRMMMQSGRKGADIMYTGTLDCWRKIAKDEGANAFFKGAWSNVLRGMGGAFVLVLYDEIKKYV
For B2, the binding result was “binds”.

B3: NEDD8-conjugating enzyme Ubc12 (enzyme, UniProt P61082 1-183)
chain: MIKLFSLKQQKKEEESAGGTKGSSKKASAAQLRIQKDINELNLPKTCDISFSDPDDLLNFKLVICPDEGFYKSGKFVFSFKVGQGYPHDPPKVKCETMVYHPNIDLEGNVCLNILREDWKPVLTINSIIYGLQYLFLEPNPEDPLNKEAAEVLQNNRRLFEQNVQRSMRGGYIGSTYFERCLK
Take B3: the binding result is on record as “binds”.

B4: 14-3-3 protein gamma (protein, UniProt P61982 1-247)
chain: MVDREQLVQKARLAEQAERYDDMAAAMKNVTELNEPLSNEERNLLSVAYKNVVGARRSSWRVISSIEQKTSADGNEKKIEMVRAYREKIEKELEAVCQDVLSLLDNYLIKNCSETQYESKVFYLKMKGDYYRYLAEVATGEKRATVVESSEKAYSEAHEISKEHMQPTHPIRLGLALNYSVFYYEIQNAPEQACHLAKTAFDDAIAELDTLNEDSYKDSTLIMQLLRDNLTLWTSDQQDDDGGEGNN
For the molecule B4, the binding entry is “binds”.

B5: Aconitate hydratase, mitochondrial (enzyme, UniProt Q99KI0 28-780)
chain: QRAKVAMSHFEPSEYIRYDLLEKNINIVRKRLNRPLTLSEKIVYGHLDDPANQEIERGKTYLRLRPDRVAMQDATAQMAMLQFISSGLPKVAVPSTIHCDHLIEAQVGGEKDLRRAKDINQEVYNFLATAGAKYGVGFWRPGSGIIHQIILENYAYPGVLLIGTDSHTPNGGGLGGICIGVGGADAVDVMAGIPWELKCPKVIGVKLTGSLSGWTSPKDVILKVAGILTVKGGTGAIVEYHGPGVDSISCTGMATICNMGAEIGATTSVFPYNHRMKKYLSKTGRTDIANLAEEFKDHLVPDPGCQYDQVIEINLNELKPHINGPFTPDLAHPVADVGTVAEKEGWPLDIRVGLIGSCTNSSYEDMGRSAAVAKQALAHGLKCKSQFTITPGSEQIRATIERDGYAQILRDVGGIVLANACGPCIGQWDRKDIKKGEKNTIVTSYNRNFTGRNDANPETHAFVTSPEIVTALAIAGTLKFNPETDFLTGKDGKKFKLEAPDADELPRSDFDPGQDTYQHPPKDSSGQRVDVSPTSQRLQLLEPFDKWDGKDLEDLQILIKVKGKCTTDHISAAGPWLKFRGHLDNISNNLLIGAINIENGKANSVRNAVTQEFGPVPDTARYYKKHGIRWVVIGDENYGEGSSREHAALEPRHLGGRAIITKSFARIHETNLKKQGLLPLTFADPSDYNKIHPVDKLTIQGLKDFAPGKPLKCVIKHPNGTQETILLNHTFNETQIEWFRAGSALNRMKELQQ
Take B5: the binding entry is on record as “binds”.

B6: Destrin (protein, UniProt Q9R0P5 1-165)
chain: MASGVQVADEVCRIFYDMKVRKCSTPEEIKKRKKAVIFCLSADKKCIVVEEGKEILVGDVGATITDPFKHFVGMLPEKDCRYALYDASFETKESRKEELMFFLWAPEQAPLKSKMIYASSKDAIKKKFPGIKHEYQANGPEDLNRTCIAEKLGGSLIVAFEGSPV
As to B6, the binding entry is listed as “binds”.

B7: Histidine triad nucleotide-binding protein 1 (protein, UniProt P70349 1-126)
chain: MADEIAKAQVAQPGGDTIFGKIIRKEIPAKIIFEDDRCLAFHDISPQAPTHFLVIPKKHISQISVADDDDESLLGHLMIVGKKCAADLGLKRGYRMVVNEGADGGQSVYHIHLHVLGGRQMNWPPG
In the case of B7, the binding result was “binds”.

B8: 14 kDa phosphohistidine phosphatase (enzyme, UniProt Q9DAK9 1-124)
chain: MAADLGQIPDVDIDSDGVFKYVLIRVHLAEPSGDPAKECKEIVRGYKWAEYHADIYDKVSGELQRNGYDCECLGGGRISHQSQDRKIHVYGYSMGYGRAQHSVSTEKIKAKYPDYEVTWADDGY
Regarding B8, the binding entry is recorded as “binds”.

For the origin of these results see publication PMC9114808.
